The chains behind the UniProt entries cited, without tags or fusion partners. Where a name states a change or a piece, a line headed by the entry shows the natural chain unless it says otherwise.
UniProt P18054: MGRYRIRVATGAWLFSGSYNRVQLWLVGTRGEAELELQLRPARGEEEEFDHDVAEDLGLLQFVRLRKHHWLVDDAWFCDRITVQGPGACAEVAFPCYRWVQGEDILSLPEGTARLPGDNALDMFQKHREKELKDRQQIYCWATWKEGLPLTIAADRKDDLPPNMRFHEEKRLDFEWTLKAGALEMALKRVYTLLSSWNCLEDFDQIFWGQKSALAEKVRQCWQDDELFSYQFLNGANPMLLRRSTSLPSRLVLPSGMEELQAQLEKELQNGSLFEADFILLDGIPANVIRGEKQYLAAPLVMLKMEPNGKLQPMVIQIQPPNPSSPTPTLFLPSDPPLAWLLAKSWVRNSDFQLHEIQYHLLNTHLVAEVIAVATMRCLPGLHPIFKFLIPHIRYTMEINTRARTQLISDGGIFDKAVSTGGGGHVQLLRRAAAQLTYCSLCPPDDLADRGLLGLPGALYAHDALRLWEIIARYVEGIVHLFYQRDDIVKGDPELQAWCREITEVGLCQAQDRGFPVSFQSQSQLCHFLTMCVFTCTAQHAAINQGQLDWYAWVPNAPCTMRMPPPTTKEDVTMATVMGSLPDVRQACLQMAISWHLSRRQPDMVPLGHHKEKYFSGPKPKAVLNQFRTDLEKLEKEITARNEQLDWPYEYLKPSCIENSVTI

In all, about 580,000 compounds went through this assay and about 6,100 (1.1%) were called active. Inconclusive means that the source gave no clear call. Such entries were picked first, then a sample of the others. The call rests on the fitted dose curve; in most records, active means well fitted inhibition curve with a large enough effect; inconclusive means small, poorly fitted or top-dose-only effect, or another doubt; inactive means no such curve, though single readings can be large or run the other way. A potency beside an inconclusive call is a rough fit, not a confirmed value.
The molecules below were run against Polyunsaturated fatty acid lipoxygenase ALOX12 (Homo sapiens) (UniProt P18054) (assay: Primary qHTS assay for inhibitors of human arachidonate 12S-lipoxygenase (ALOX12): Round 2). Details: purified 12hLO, xylenol orange hydroperoxide absorbance; activity change, negative = inhibition: at 108 µM (top of the series) unless noted.
Outline: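 Purified human 12hLO (150 nM final) in 25 mM Hepes, 0.01% Triton X-100, pH 7.0 was preincubated 15 min at room temperature with compound. Then 40 uM arachidonic acid was added, 30 min. Hydroperoxide was read by Fe-XO absorbance ratio 573/405 nm.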
For `CCOC(=O)c1cnc2ccccc2c1Nc1ccc2c(c1)OCCO2`, the Potency was inconclusive: 56.2 µM [inhibitor, partial curve, poor fit].
For `O=C(O)c1cc(S(=O)(=O)O)cc(Nc2c3ccccc3nc3ccccc23)c1O`, the “activity change, negative = inhibition” value was inactive: -7.81%.
In the case of `Cc1ccc(CSC2=Nc3ccccc3C3=NC(CC(=O)NC4CCCCC4)C(=O)N23)c(C)c1` (configuration not stated), the Potency is reported as inconclusive: 50.1 µM [inhibitor, partial curve, poor fit].
In the case of `CCOc1ccc(/C(O)=C2/C(=O)C(=O)N(CC3CCCO3)C2c2ccc(C)o2)cc1` (configuration not stated), the Potency is reported as inconclusive: 2.24 µM [inhibitor, full curve, poor fit].
In the case of `O=C(O)C(c1ccccc1)C(O)C1CC=CCC1` (configuration not stated), the Potency is reported as inconclusive: 100 µM [inhibitor, partial curve, poor fit].
With `CCC(CC)NC(=O)COC(=O)c1cc(SC)ccc1Cl` the “activity change, negative = inhibition” value was inactive: -7.46%.
`O=C(CCCCCN1C(=O)CCC1=O)Nc1ccc(Br)cc1F` was tested, and the Potency was inconclusive: 50.1 µM [inhibitor, partial curve, poor fit].
In the case of `Cc1cc(F)ccc1NC(=O)Cn1c(C)csc1=O`, the Potency is reported as inconclusive: 56.2 µM [inhibitor, partial curve, poor fit].
`CC(C)(C)OC(=O)N1C(=O)[C@](OC(=O)c2ccccc2)(c2ccccc2)c2cccc(F)c21` was tested, and the Potency was inconclusive: 31.6 µM [inhibitor, single point].
`Cc1cc(Nc2cccc(C(F)(F)F)c2)ncn1` was tested, and the Potency was inconclusive: 35.5 µM [inhibitor, partial curve, poor fit].
With `COc1ccc(CNC2CCCc3ccccc32)cc1OC` (configuration not stated) the “activity change, negative = inhibition” value was inactive: -10.8%.
For `CC(C)(C)c1ccc(S(=O)(=O)Nc2ccc(C(O)(C(F)(F)F)C(F)(F)F)cc2)cc1`, the Potency was inconclusive: 89.1 µM [inhibitor, single point].
In the case of `O=C(Nc1ccccc1-n1cncn1)C1CCCCC1`, the Potency is reported as inconclusive: 50.1 µM [inhibitor, partial curve, poor fit].
`O=C(Nc1ccc(N2CCC(N3CCCCC3)CC2)c(C(=O)O)c1)c1ccccc1` was tested, and the Potency was inconclusive: 112 µM [inhibitor, single point].
With `COc1ccccc1N1CCN(c2ncccc2CNC(=O)c2ccoc2)CC1` the “activity change, negative = inhibition” value was inactive: -13.2%.
With `Cc1ccc(S(=O)(=O)CCC(=O)Oc2ccc(C(C)C)cc2)cc1` the Potency was inconclusive: 39.8 µM [inhibitor, partial curve, poor fit].
In the case of `CCN1CCCC1CN(Cc1cc2cc(C)ccc2[nH]c1=O)C(=O)Nc1ccccc1OC` (configuration not stated), the “activity change, negative = inhibition” value is reported as inactive: 16.7%.
In the case of `O=C(/C=C/Nc1ccc(S(=O)(=O)Nc2ncccn2)cc1)c1cccs1`, the Potency is reported as inconclusive: 39.8 µM [inhibitor, partial curve, poor fit].
With `COc1cccc(OCCNC(=O)c2ccc3[nH]c(C)c(C)c3c2)c1` the Potency was inconclusive: 79.4 µM [inhibitor, single point].
For `COc1cc(OC)c(OC)cc1/C=C/C(=O)c1ccc(OC(F)F)cc1`, the Potency was inconclusive: 50.1 µM [inhibitor, partial curve, poor fit].
In the case of `O=S(=O)(NCCC1=CCCCC1)c1ccc(OC(F)(F)F)cc1`, the Potency is reported as inconclusive: 7.94 µM [inhibitor, full curve].
For `O=C(NC1CCCCC1)N(Cc1nc2ccccc2c(=O)[nH]1)C1CCCCC1`, the Potency was inconclusive: 10 µM [inhibitor, full curve, poor fit].
With `CC(/C=C1\SC(=S)N(c2ccc(C(=O)O)cc2)C1=O)=C\c1ccccc1` the Potency was active: 35.5 µM.
With `Cc1oc(-c2cccc(Cl)c2)[n+]([O-])c1C` the Potency was inconclusive: 31.6 µM [inhibitor, single point].
In the case of `NS(=O)(=O)c1ccc(NNC(=O)c2ccc(NS(=O)(=O)c3cccs3)cc2)c([N+](=O)[O-])c1`, the “activity change, negative = inhibition” value is reported as inactive: -10.3%.
In the case of `CC1(C(=O)Nc2ccc(Cl)c(Cl)c2)CCN1C(=O)CCC1CCCC1` (configuration not stated), the Potency is reported as inconclusive: 35.5 µM [inhibitor, partial curve, poor fit].
For `COc1cccc(C2NC(=O)NC(C)=C2C(=O)c2ccc(Cl)cc2)c1` (configuration not stated), the Potency was inconclusive: 44.7 µM [inhibitor, partial curve, poor fit].
In the case of `Cc1noc(C)c1CC(=O)N1CCCC(C(=O)c2ccc(C(C)(C)C)cc2)C1` (configuration not stated), the “activity change, negative = inhibition” value is reported as inactive: 0.137%.
In the case of `CCC(=O)Nc1ccc(N2CCOCC2)c(S(=O)(=O)Nc2ccc(Cl)cc2)c1`, the Potency is reported as inconclusive: 44.7 µM [inhibitor, partial curve, poor fit].
With `N#Cc1c(-c2ccccc2)cc(-c2ccccc2)nc1SCC(=O)NCC(=O)O` the “activity change, negative = inhibition” value was inactive: -14%.
In the case of `CC1=CC(C)(C)N2C(=O)C(=Nc3ccc(O)cc3)c3cccc1c32`, the Potency is reported as inconclusive: 25.1 µM [inhibitor, partial curve].
For `COCCN(Cc1ccc(C)cc1)C(=O)[C@H]1O[C@@H](n2cnc(C(N)=O)n2)[C@H](O)[C@@H]1O`, the “activity change, negative = inhibition” value was inactive: 17.6%.
`CC(C)c1nnc(NC(=O)CCC(=O)NC2CCCc3ccccc32)s1` (configuration not stated) was tested, and the “activity change, negative = inhibition” value was inactive: 11.3%.
`COc1ccc(/C=N/N2C(=O)CSC2=S)cc1` was tested, and the Potency was inconclusive: 56.2 µM [inhibitor, partial curve, poor fit].
For `CCC(C)NC(=O)C(NC(=O)c1ccc(OC)cc1)C1CCN(C(=O)c2cccc(OC)c2)CC1` (configuration not stated), the “activity change, negative = inhibition” value was inactive: 2.09%.
With `Cc1cc(OC(=O)c2c(C)cc(OC(=O)c3c(C)cc(O)cc3O)cc2O)cc(O)c1C(=O)O` the Potency was active: 35.5 µM.
`NC(=S)N/N=C1\CCSc2ccc(Cl)cc21` was tested, and the “activity change, negative = inhibition” value was inactive: 0%.
For `CCCCCCN1C[C@H](n2cc(C3CC3)nn2)[C@@H](O)C[C@@H]1c1ccc(C)cc1`, the Potency was inconclusive: 39.8 µM [inhibitor, partial curve, poor fit].
With `c1ccc(COc2ccc(CN3CCN(c4ccccn4)CC3)cc2)cc1` the Potency was inconclusive: 44.7 µM [inhibitor, partial curve, poor fit].
In the case of `CC1(C)CC(=O)c2sc(NC(=O)c3ccc4ncsc4c3)nc2C1`, the Potency is reported as inconclusive: 44.7 µM [inhibitor, partial curve, poor fit].
In the case of `CC(=O)Nc1ccc(S(=O)(=O)NCC(=O)OCC(=O)N2CCCc3ccccc32)cc1`, the Potency is reported as inconclusive: 1 µM [inhibitor, full curve, poor fit].
`C=C(C)COc1ccc2c(=O)c(Oc3ccc(C(=O)OCC)cc3)c(C)oc2c1` was tested, and the “activity change, negative = inhibition” value was inactive: 39.2%.
For `Cc1cc2c(cc3c(SCc4ccc(Cl)cc4)nnc(C)n32)o1`, the “activity change, negative = inhibition” value was inactive: 2.97%.
For `CCN(CCCNC(=O)c1cc2cc3cc(OC)ccc3nc2s1)c1cccc(C)c1`, the “activity change, negative = inhibition” value was inactive: -10.5%.
For `CC(OC(=O)c1cc(=O)[nH]c2ccccc12)C(=O)Nc1ccccc1F` (configuration not stated), the Potency was inconclusive: 89.1 µM [inhibitor, single point].
For `CCC(=O)Oc1c(Sc2ccc(Cl)cc2)c(C)nn1C(C)(C)C`, the Potency was inconclusive: 89.1 µM [inhibitor, partial curve, poor fit].
For `CCN(C[C@H]1N[C@@](CC)(C(=O)OC)[C@H]2C(=O)N(C)C(=O)[C@@H]12)S(=O)(=O)c1ccc(OC)cc1`, the Potency was inconclusive: 5.01 µM [inhibitor, full curve, poor fit].
`CCc1ccc(NC(=S)Nc2cc(OC)c(NC(=O)C(C)C)cc2OC)cc1` was tested, and the Potency was inconclusive: 44.7 µM [inhibitor, partial curve, poor fit].
For `COc1ccc2oc(=O)c(C(=O)NCCc3ccc(OC)c(OC)c3)cc2c1`, the Potency was inconclusive: 100 µM [inhibitor, single point].
`CN(C)c1cc(N2CCCC(NC(=O)c3ccnn3C)C2)ncn1` (configuration not stated) was tested, and the “activity change, negative = inhibition” value was inactive: 17%.
`CC(C)CNC(=O)C1COC2(CCCCC2)N1C(=O)c1cccc([N+](=O)[O-])c1` (configuration not stated) was tested, and the “activity change, negative = inhibition” value was inactive: 10.5%.
With `Cc1cccc(N2CCN(C(=O)c3nn(C)c4c3CSc3ccccc3-4)CC2C)c1` (configuration not stated) the Potency was inconclusive: 39.8 µM [inhibitor, partial curve, poor fit].
With `CCOC(=O)N1CCN(C(=O)c2ccc(CS(=O)(=O)c3ccc(OC)cc3)o2)CC1` the “activity change, negative = inhibition” value was inactive: 15.4%.
With `Cc1cccc(OCCN2C(=O)C(=O)c3cccc(C)c32)c1` the “activity change, negative = inhibition” value was inactive: -20.8%.
`COc1ccc(N(C(=O)COc2c(C)cccc2C)S(=O)(=O)c2ccc(Cl)cc2)cc1` was tested, and the “activity change, negative = inhibition” value was inactive: -16.7%.
`Cc1ccccc1C(=O)NCC(c1cccnc1)N1CCc2ccccc21` (configuration not stated) was tested, and the Potency was inconclusive: 112 µM [inhibitor, partial curve, poor fit].
In the case of `CC(=O)NC(c1cccs1)c1cc(F)c2cccnc2c1O` (configuration not stated), the Potency is reported as inconclusive: 11.2 µM [inhibitor, full curve].
For `O=C1CCC(C(=O)OCc2ccc(Br)cc2)=NN1`, the Potency was inconclusive: 14.1 µM [inhibitor, full curve, poor fit].
`COc1ccc(NS(=O)(=O)c2cc(-c3n[nH]c(=O)c4ccccc34)ccc2C)cc1` was tested, and the Potency was inconclusive: 89.1 µM [inhibitor, single point].
In the case of `CCOC(=O)C1CCN(C(=O)c2cc3cc4cc(OC)ccc4nc3o2)CC1`, the “activity change, negative = inhibition” value is reported as inactive: -18.9%.
`COC1(OC)N=C(N)C2(C#N)C(c3ccc(F)cc3)C12C#N` (configuration not stated) was tested, and the Potency was inconclusive: 28.2 µM [inhibitor, single point].
With `Nc1nnnn1NCc1ccc(-c2cccc(Cl)c2)o1` the Potency was inconclusive: 39.8 µM [inhibitor, partial curve, poor fit].
`CCc1ccc2oc(-c3ccc(NC(=O)c4ccc(OC)cc4)cc3)nc2c1` was tested, and the Potency was inconclusive: 89.1 µM [inhibitor, single point].
With `CCCC(O)(CCC)C(=O)NNc1ccccc1` the Potency was inconclusive: 5.62 µM [inhibitor, full curve, poor fit].
For `COc1ccc(C(=O)c2cccc(C(=O)c3ccc(OC)cc3)c2)cc1`, the “activity change, negative = inhibition” value was inactive: -1.64%.
With `CS(=O)(=O)N1CC2(CCCN2Cc2cccc(C(N)=O)c2)Cc2ccccc21` (configuration not stated) the “activity change, negative = inhibition” value was inactive: 33.9%.
In the case of `O=CNc1cc(-c2cccc(F)c2)cn2c(-c3ccc(F)c(Cl)c3)cnc12`, the Potency is reported as inconclusive: 39.8 µM [inhibitor, partial curve, poor fit].
On the % scale 0 is the no-effect control and ±100 the full control effect; potency means the concentration at half of the fitted maximal effect.
